Results published in patent US7272508B2, “Small molecule mimetics of erythropoietin” (The Scripps Research Institute, priority 1996, dated 2007).
These are yes or no findings as the source states them, for the method shown. Some binding calls cover weakened binding; strength is not graded here.

T1: EPO binding protein (EBP), extracellular fragment of human EPO receptor, residues 1-225 (human) (UniProt P19235)
T1 sequence (looked up): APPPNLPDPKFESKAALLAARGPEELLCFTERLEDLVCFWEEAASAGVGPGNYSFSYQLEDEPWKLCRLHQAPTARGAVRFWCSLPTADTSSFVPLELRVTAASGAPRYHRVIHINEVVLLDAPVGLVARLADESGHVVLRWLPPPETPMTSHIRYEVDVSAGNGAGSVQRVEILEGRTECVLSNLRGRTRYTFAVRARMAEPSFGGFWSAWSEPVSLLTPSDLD

T2: EPO receptor (as used in receptor binding assays and on EPO responsive cells) (UniProt P19235)
T2 sequence (looked up): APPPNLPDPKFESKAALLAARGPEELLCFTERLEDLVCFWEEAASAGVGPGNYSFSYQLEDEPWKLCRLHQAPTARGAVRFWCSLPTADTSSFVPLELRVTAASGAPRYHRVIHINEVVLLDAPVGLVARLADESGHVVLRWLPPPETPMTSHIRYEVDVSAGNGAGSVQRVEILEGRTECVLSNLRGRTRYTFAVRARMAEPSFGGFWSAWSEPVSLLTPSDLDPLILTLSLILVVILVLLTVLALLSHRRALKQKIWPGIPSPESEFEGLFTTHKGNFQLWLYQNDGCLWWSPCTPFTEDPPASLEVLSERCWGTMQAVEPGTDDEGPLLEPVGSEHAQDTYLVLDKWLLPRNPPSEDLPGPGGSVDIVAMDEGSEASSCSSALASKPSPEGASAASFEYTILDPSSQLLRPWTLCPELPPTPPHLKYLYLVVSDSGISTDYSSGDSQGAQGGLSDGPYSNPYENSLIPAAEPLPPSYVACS


Tests used:
[1] = target: T1, EPO binding protein (EBP), extracellular fragment of human EPO receptor, residues 1-225 (human); test: co-crystal, difference Fourier
[2] = target: T2, EPO receptor (as used in receptor binding assays and on EPO responsive cells); test: receptor binding assay, competition with EPO

Row | binding [1] | binding [2] | Binder
1 | binds |  | GGTFSCHFGPLTWVCKPQGG (p-iodo-Phe at position P4 in place of Tyr) [iodinated peptide (EMP1 with Tyr P4 substituted for p-iodo-Phe)]
2 |  | binds | GGTYSCHFGPLTWVCKPQGG (intramolecular disulfide bridge between Cys P6 and Cys P15 (cyclic)) [EMP1 (EPO Mimetic Peptide 1)]
